Source: PubChem BioAssay AID1224828 (NIAID, 2016)

Screen: 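Knock-downs that increase or decrease LPS-induced p65 nuclear translocation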 (primary screen)
Cell system: mouse RAW264.7 G9 macrophage reporter cells (GFP-p65, Tnf promoter-mCherry)
Knock-down reagent: siRNA pool against mouse genes, 100 nM
Timing: 2 days siRNA transfection, then 40 min LPS before fixation
Conditions: LPS (Salmonella minnesota R595) at 10 ng/ml
Detection: 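Microscopy ratio of nuclear to perinuclear-ring GFP-p65 signal, scaled to the plate median; gene score is the average of two replicate robust z-scores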
Reading the numbers: p65 translocation robust z-score: higher = more nuclear NF-kappaB p65 after LPS than the plate median; nuclear/cytoplasmic p65 ratio: higher = more nuclear NF-kappaB p65
Hit rule: 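Called active when z exceeds 3.3 or falls under -1.56 (median of Tlr4 controls), giving activity score of at least 50; no calls for control wells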
Meaning of the calls: active = hit (p65 shift raised or lowered); inactive = no clear change
The whole screen tested about 17,000 reagents; this is a part drawn at random. In the full data, 762 (4.5%) got an active call. 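Active calls include both raised and lowered p65 entry, mostly lowered; wells with fewer than 50 cells lack a z-score.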 Raw values are not corrected between plates. Reagents against one gene are numbered here.

no.	Gene	reagent	p65 translocation robust z-score	nuclear/cytoplasmic p65 ratio, rep 1	nuclear/cytoplasmic p65 ratio, rep 2	low cell count flag	Call
1	Dscam (DS cell adhesion molecule)	1		1.48	1.38	fewer than 50 cells per well; well left out of scoring	inactive
2	Mfn2 (mitofusin 2)	1	-1.41	1.55	1.3	enough cells to score	inactive
3	Plagl2 (pleiomorphic adenoma gene-like 2)	1	0.05	1.46	1.46	enough cells to score	inactive
4	Trpm1	1	-0.4	1.45	1.45	enough cells to score	inactive
5	Btbd10 (BTB domain containing 10)	1	0.99	1.64	1.74	enough cells to score	inactive
6	Gorasp1 (golgi reassembly stacking protein 1)	1	2.34	1.9	1.97	enough cells to score	inactive
7	Gps2 (G protein pathway suppressor 2)	1		1.27	1.27	fewer than 50 cells per well; well left out of scoring	inactive
8	Osbpl3 (oxysterol binding protein-like 3)	1		1.55	1.17	fewer than 50 cells per well; well left out of scoring	inactive
9	Ssty2 (spermiogenesis specific transcript on the Y 2)	1		1.24	1.1	fewer than 50 cells per well; well left out of scoring	inactive
10	Gdi2 (GDP dissociation inhibitor 2)	1	0.21	1.57	1.55	enough cells to score	inactive
11	Gdi2 (GDP dissociation inhibitor 2)	2	-2.71	1.03	1.07	enough cells to score	active
12	Dsc3 (desmocollin 3)	1		1.33	1.3	fewer than 50 cells per well; well left out of scoring	inactive
13	Arvcf (armadillo repeat gene deleted in velocardiofacial syndrome)	1	-0.05	1.61	1.61	enough cells to score	inactive
14	Mboat2 (membrane bound O-acyltransferase domain containing 2)	1		1.21	1.5	fewer than 50 cells per well; well left out of scoring	inactive
15	Tmem86a (transmembrane protein 86A)	1	0.75	1.46	1.55	enough cells to score	inactive
16	Dhrs3 (dehydrogenase/reductase 3)	1	-0.61	1.52	1.42	enough cells to score	inactive
17	Ms4a7 (membrane-spanning 4-domains, subfamily A, member 7)	1	0.82	1.83	1.64	enough cells to score	inactive
18	Or51k1 (olfactory receptor family 51 subfamily K member 1)	1	0.42	1.5	1.32	enough cells to score	inactive
19	Vstm2a (V-set and transmembrane domain containing 2A)	1	-1.54	1.38	1.55	enough cells to score	inactive
20	Fzd3 (frizzled class receptor 3)	1	-1.01	1.36	1.44	enough cells to score	inactive
21	Vps16 (VSP16 CORVET/HOPS core subunit)	1	1.21	1.59	1.33	enough cells to score	inactive
22	9530009G21Rik (RIKEN cDNA 9530009G21 gene)	1	1.27	1.53	1.79	enough cells to score	inactive
23	Ptprc (protein tyrosine phosphatase receptor type C)	1	0.45	1.54	1.49	enough cells to score	inactive
24	Tsr1 (TSR1 20S rRNA accumulation)	1		1.62	1.65	fewer than 50 cells per well; well left out of scoring	inactive
25	Naalad2 (N-acetylated alpha-linked acidic dipeptidase 2)	1	-0.24	1.75	1.55	enough cells to score	inactive
26	Krtap13-21 (keratin associated protein 13-21)	1		1.55	1.54	fewer than 50 cells per well; well left out of scoring	inactive
27	Cchcr1 (coiled-coil alpha-helical rod protein 1)	1	0.56	1.57	1.77	enough cells to score	inactive
28	Decr1 (2,4-dienoyl CoA reductase 1, mitochondrial)	1	0.03	1.48	1.38	enough cells to score	inactive
29	Qsox1 (quiescin Q6 sulfhydryl oxidase 1)	1	0.25	1.53	1.57	enough cells to score	inactive
30	Ppm1f (protein phosphatase 1F (PP2C domain containing))	1	0.84	1.62	1.51	enough cells to score	inactive
31	1700020N01Rik (RIKEN cDNA 1700020N01 gene)	1	0.8	1.52	1.5	enough cells to score	inactive
32	Zfp715 (zinc finger protein 715)	1	0.59	1.44	1.57	enough cells to score	inactive
33	Ints5 (integrator complex subunit 5)	1	-0.69	1.4	1.4	enough cells to score	inactive
34	Appbp2 (amyloid beta precursor protein binding protein 2)	1	-0.23	1.54	1.63	enough cells to score	inactive
35	Or5d38 (olfactory receptor family 5 subfamily D member 38)	1	-0.37	1.63	1.5	enough cells to score	inactive
36	Rbm14 (RNA binding motif protein 14)	1	-0.04	1.39	1.21	enough cells to score	inactive
37	Hnrnpa3 (heterogeneous nuclear ribonucleoprotein A3)	1	-0.01	1.45	1.41	enough cells to score	inactive
38	Pgm1 (phosphoglucomutase 1)	1	-0.08	1.4	1.26	enough cells to score	inactive
39	Pycard (PYD and CARD domain containing)	1	0.32	1.65	1.67	enough cells to score	inactive
40	Eif4h (eukaryotic translation initiation factor 4H)	1	0.26	1.5	1.69	enough cells to score	inactive
41	Ggt6 (gamma-glutamyltransferase 6)	1	0.4	1.45	1.63	enough cells to score	inactive
42	Vmn1r171 (vomeronasal 1 receptor 171)	1		1.25	1.27	fewer than 50 cells per well; well left out of scoring	inactive
43	Zpr1 (ZPR1 zinc finger)	1	1.44	1.6	1.41	enough cells to score	inactive
44	Gdf9 (growth differentiation factor 9)	1	-1.37	1.26	1.19	enough cells to score	inactive
45	Nfxl1 (nuclear transcription factor, X-box binding-like 1)	1	0.96	1.53	1.71	enough cells to score	inactive
46	Fancd2 (Fanconi anemia, complementation group D2)	1	0.42	1.54	1.41	enough cells to score	inactive
47	Cds1 (CDP-diacylglycerol synthase 1)	1	-0.5	1.49	1.73	enough cells to score	inactive
48	Gm5087 (predicted gene 5087)	1	1.47	1.71	2.13	enough cells to score	inactive
49	Ppp4r1 (protein phosphatase 4, regulatory subunit 1)	1	-1.27	1.31	1.26	enough cells to score	inactive
50	Or13a18 (olfactory receptor family 13 subfamily A member 18)	1		1.25	1.37	fewer than 50 cells per well; well left out of scoring	inactive
51	Tnfrsf4 (tumor necrosis factor receptor superfamily, member 4)	1	-0.22	1.48	1.41	enough cells to score	inactive
52	Polr3f (polymerase (RNA) III (DNA directed) polypeptide F)	1	0.45	1.2	1.31	enough cells to score	inactive
53	Zfp120 (zinc finger protein 120)	1	1.46	1.67	1.36	enough cells to score	inactive
54	Thbs2 (thrombospondin 2)	1	-0.52	1.37	1.52	enough cells to score	inactive
55	Nde1 (nudE neurodevelopment protein 1)	1	-1.67	1.12	1.14	enough cells to score	active
56	Washc5 (WASH complex subunit 5)	1	-0.12	1.47	1.33	enough cells to score	inactive
57	Hmbox1 (homeobox containing 1)	1	-0.17	1.49	1.51	enough cells to score	inactive
58	Ribc1 (RIB43A domain with coiled-coils 1)	1	-0.98	1.2	1.4	enough cells to score	inactive
59	Lsm11 (U7 snRNP-specific Sm-like protein LSM11)	1	0.11	1.64	1.64	enough cells to score	inactive

Reprinted from the entries so far for reference:
no.	Gene	reagent	p65 translocation robust z-score	nuclear/cytoplasmic p65 ratio, rep 1	nuclear/cytoplasmic p65 ratio, rep 2	low cell count flag	Call
27	Cchcr1 (coiled-coil alpha-helical rod protein 1)	1	0.56	1.57	1.77	enough cells to score	inactive
28	Decr1 (2,4-dienoyl CoA reductase 1, mitochondrial)	1	0.03	1.48	1.38	enough cells to score	inactive
29	Qsox1 (quiescin Q6 sulfhydryl oxidase 1)	1	0.25	1.53	1.57	enough cells to score	inactive
30	Ppm1f (protein phosphatase 1F (PP2C domain containing))	1	0.84	1.62	1.51	enough cells to score	inactive
31	1700020N01Rik (RIKEN cDNA 1700020N01 gene)	1	0.8	1.52	1.5	enough cells to score	inactive
32	Zfp715 (zinc finger protein 715)	1	0.59	1.44	1.57	enough cells to score	inactive
33	Ints5 (integrator complex subunit 5)	1	-0.69	1.4	1.4	enough cells to score	inactive
34	Appbp2 (amyloid beta precursor protein binding protein 2)	1	-0.23	1.54	1.63	enough cells to score	inactive
35	Or5d38 (olfactory receptor family 5 subfamily D member 38)	1	-0.37	1.63	1.5	enough cells to score	inactive
36	Rbm14 (RNA binding motif protein 14)	1	-0.04	1.39	1.21	enough cells to score	inactive
